Test results reported in patent US20180237536A1.
Results are given in words; binding and its absence hold for the method and conditions named. Binding can be weak; no strength is given.

Columns and labels:
[1] = molecular target: human CD73 expressed at the cell surface (human); experiment: flow cytometry titration on human CD73-expressing recombinant host cells, PE secondary, median of fluorescence
[2] = molecular target: human CD73 expressed at the cell surface (human); experiment: flow cytometry titration on MDA-MB-231 cells (endogenous human CD73), PE secondary, median of fluorescence
[3] = molecular target: human CD73 expressed at the cell surface (human); experiment: flow cytometry titration on MDA-MB-231 cells (endogenous CD73)
[4] = molecular target: human CD73 expressed at the cell surface (human); experiment: flow cytometry on MDA-MB-231 cells with or without APCP
[5] = molecular target: human CD73 expressed at the cell surface (human); experiment: flow cytometry titration on human CD73-expressing recombinant host cells
[6] = molecular target: human CD73 expressed at the cell surface (human); experiment: flow cytometry on MDA-MB-231 cells with or without 200 µM APCP
[7] = molecular target: human CD73 expressed at the cell surface (human); experiment: flow cytometry titration on HEK-293T cells transfected with wild type human CD73, mean of fluorescence
[8] = molecular target: human CD73 expressed at the cell surface (human); experiment: flow cytometry titration on cells expressing wild type human CD73

binding [1]	binding [2]	binding [3]	binding [4]	binding [5]	binding [6]	binding [7]	binding [8]	Binder
binds	binds	binds	binds	binds	binds	–	–	antibody 8C7 (antibody, human IgG1, V domains shown) VH: EVQLQQSGPELVKPGASVKVSCKASGYAFASYNMNWVKQSHGKSLDWIGYIDPYNGGSSYNLTFKGKATLTVDKSSTTAYMHLNSLTSEDSAVYYCARGYGNYKAWFAYWGQGTLVTVSA VL: SIVMTPTPKFLLVSAGDRVTITCKASQSVSNDVAWYQQKPGQSPKLLIYYASTRYTGVPDRFTGSGYGTDFTFTISTVQAEDLAVYFCQQDYSSLTFGAGTKLELKR
binds	binds	binds	binds	binds	binds	–	–	antibody 6E1 (antibody, human IgG1, V domains shown) VH: EFQLQQSGPELVKPGASVKVSCKASGYAFTSYNMYWVKQSHGKRLEWIGYIDPYNGGSSYNQKFKGKATLTVDKSSSTAYMHLNNLTSEDSAVYYCARGYNNYKAWFAYWGQGTLVTVSA VL: SIVMTQTPKFLLVSAGDRVTITCKASQSVTNDVAWYQQKPGQSPKLLIYYASNRYTGVPDRFTGSGYGTDFTFTISTMQAEDLAVYFCQQDYSSLTFGAGTKLELK
binds	binds	binds	binds	binds	binds	binds	binds	antibody 3C12 (antibody, human IgG1, V domains shown) VH: QIQLQQSGPELVKPGASVKVSCKASGYAFASYNMNWVKQSHGKSLDWIGYIDPYNGGSSYNLTFKGKATLTVDKSSTTAYMHLNSLTSEDSAVYYCARGYGNYKAWFAYWGQGTLVTVSA VL: DVVMTQTPKFLLVSAGDRVTITCKASQSVSNDVAWYQQKPGQSPKLLIYYASTRYTGVPDRFTGSGYGTDFTFTISTVQAEDLAVYFCQQDYSSLTFGAGTKLELKR
binds	binds	binds	binds	binds	binds	–	–	antibody 11E1 (antibody, human IgG1, V domains shown) VH: EIQLQQSGPELVKPGASVKVSCKASGYAFTSYNMYWVKQSHGKSLEWIGYIDPYNGGTSYNQKFKGKATLTVDKSSSTAYMHLNSLTSEDSAVYYCARGYGNYKAWFAYWGQGTLVTVSA VL: DAVMTQTPKFLLVSAGDRVTITCKASQSVTNDVAWYQQKPGQSPKLLIYYASNRYTGVPDRFTGSGYGTDFTFTISTVQAEDLAVYFCQQDYSSLTFGAGTKLELK
